Experimental data taken from paper doi:10.1101/2023.07.15.549169.
Results are given in words; binding and its absence hold for the method and conditions named. For some assays here: In cells and extracts the contact can be indirect. Some binding calls cover weakened binding; strength is not graded here. Sequences can lack the tags named with a protein.

T1: His-tagged SMAD4 WT (Mothers against decapentaplegic homolog 4), Q13485
T1 chain: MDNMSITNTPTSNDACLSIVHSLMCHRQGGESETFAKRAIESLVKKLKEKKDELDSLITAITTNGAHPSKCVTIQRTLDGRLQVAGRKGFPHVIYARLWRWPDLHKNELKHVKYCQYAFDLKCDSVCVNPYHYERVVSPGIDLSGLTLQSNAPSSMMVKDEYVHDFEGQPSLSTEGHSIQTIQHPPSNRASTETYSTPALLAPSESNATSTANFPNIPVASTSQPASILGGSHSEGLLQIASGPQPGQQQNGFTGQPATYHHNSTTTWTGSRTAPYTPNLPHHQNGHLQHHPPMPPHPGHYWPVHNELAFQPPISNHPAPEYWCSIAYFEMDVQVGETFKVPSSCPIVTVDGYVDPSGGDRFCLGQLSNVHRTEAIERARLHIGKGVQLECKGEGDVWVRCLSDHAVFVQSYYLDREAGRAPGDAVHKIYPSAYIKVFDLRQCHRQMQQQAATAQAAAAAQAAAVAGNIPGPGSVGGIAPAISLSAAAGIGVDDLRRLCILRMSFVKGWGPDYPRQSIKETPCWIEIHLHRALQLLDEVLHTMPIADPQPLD

T2: GST-SMAD4 (full-length), Q13485
T2 chain: T1 chain

B1: Flag-tagged SMAD3 WT, P84022 1-425 (natural protein)
chain: MSSILPFTPPIVKRLLGWKKGEQNGQEEKWCEKAVKSLVKKLKKTGQLDELEKAITTQNVNTKCITIPRSLDGRLQVSHRKGLPHVIYCRLWRWPDLHSHHELRAMELCEFAFNMKKDEVCVNPYHYQRVETPVLPPVLVPRHTEIPAEFPPLDDYSHSIPENTNFPAGIEPQSNIPETPPPGYLSEDGETSDHQMNHSMDAGSPNLSPNPMSPAHNNLDLQPVTYCEPAFWCSISYYELNQRVGETFHASQPSMTVDGFTDPSNSERFCLGLLSNVNRNAAVELTRRHIGRGVRLYYIGGEVFAECLSDSAIFVQSPNCNQRYGWHPATVCKIPPGCNLKIFNNQEFAALLAQSVNQGFEAVYQLTRMCTIRMSFVKGWGAEYRRQTVTSTPCWIELHLNGPLQWLDKVLTQMGSPSIRCSSVS
B2: Venus-flag-tagged (VF) SMAD3 (full-length), P84022 1-425 (protein)
chain: B1 chain

Experiments:
[1] = target: T1, His-tagged SMAD4 WT (Mothers against …); assay: AlphaScreen or HTRF; details: remark: other sources report otherwise
[2] = target: T2, GST-SMAD4 (full-length), Q13485; assay: pull-down; details: remark: other sources report otherwise

Binder	binding [1]	binding [2]
B1	binds	–
B2	–	binds
